The record followed here is the supplement of paper PMC3334620.

In all, about 33,000 sequences were measured (“E-score (-0.5 to 0.5)”: median about -0.0034, highest 2% from about 0.25 on). This is one part of the list.

The assay addresses T1, Yap3 (UniProt P38749).
T1 sequence: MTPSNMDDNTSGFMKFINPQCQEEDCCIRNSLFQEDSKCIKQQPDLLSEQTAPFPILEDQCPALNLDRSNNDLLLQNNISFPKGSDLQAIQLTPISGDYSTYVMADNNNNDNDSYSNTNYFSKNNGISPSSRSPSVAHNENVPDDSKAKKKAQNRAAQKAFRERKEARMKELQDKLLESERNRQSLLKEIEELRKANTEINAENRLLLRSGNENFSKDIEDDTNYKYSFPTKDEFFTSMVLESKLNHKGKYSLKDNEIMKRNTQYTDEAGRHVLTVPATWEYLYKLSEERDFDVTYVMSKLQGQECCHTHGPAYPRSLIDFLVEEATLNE
Briefly: PBM E-score (8-mer binding enrichment) (E-score (-0.5 to 0.5)); higher = stronger / more preferred TF binding. Particulars: protein concentration: 100 nM; construct: GST-full length. In short, it runs like this:
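Detection of bound protein used fluorescent anti-GST, with scans normalised by masliner. The proteins were GST-tagged yeast transcription factors applied at about 100-200 nM to universal all-10-mer Agilent arrays made double-stranded by primer extension. Each ungapped eight-base word, pooled with its reverse complement, was scored with an E-score from the Universal PBM Analysis Suite.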
Regarding ATAGAGAT, the “PBM E-score” value stood at 0.166.
On to ATCATATC, for which the “PBM E-score” value came to 0.193.
The result for GACAATGA reads -0.172; that for AACACCCA, -0.0606.
The result for ACATTGCG reads -0.0125; that for ATTCGTGA, 0.161.
On to GCGCTGTA, for which the “PBM E-score” value is -0.0584.
Regarding GCACGAAA, the “PBM E-score” value stood at 0.148.
For CTGATGGA, the “PBM E-score” value is -0.145.
With AGAGAGAA, the “PBM E-score” value is -0.136.
In the case of AAAAGGCC, the “PBM E-score” value is -0.103.
On to AATCTCTG, for which the “PBM E-score” value is -0.138.
Turning to CAATAAAA, the “PBM E-score” value worked out at 0.201.
Turning to CCGGCTGC, the “PBM E-score” value is -0.18.
To ATAGTCTC belongs 0.164; to AAAACAGT, 0.153.
Consider ACAGCCCG, for which the “PBM E-score” value was -0.111.
Consider ACTCAGAC, for which the “PBM E-score” value worked out at 0.141.
As to AGTACGGA, the “PBM E-score” value was found to be 0.0777.
To AAAGCTTT belongs 0.109.
The result for AGTCTGAA reads 0.0436; that for ACGCCTTG, -0.0431.
On to CCGTTATA, for which the “PBM E-score” value is 0.0218.
Consider ACACAGAG, for which the “PBM E-score” value was -0.0836.
For ACTGAGCC, the “PBM E-score” value was -0.21.
Regarding AGGACAAT, the “PBM E-score” value stood at 0.166.
As to ATGCATTA, the “PBM E-score” value worked out at 0.333.
To GATAGCAA belongs 0.248.
As to AGAGGAAA, the “PBM E-score” value turned out to be 0.0254.
For CTGTAGAA, the “PBM E-score” value stood at 0.043.
The result for AACTCCGA reads -0.0161.
Consider ACTAACAG, for which the “PBM E-score” value came out at 0.315.
Turning to AGTGTTAA, the “PBM E-score” value worked out at 0.125.
For CCAATTAA, the “PBM E-score” value is 0.0782.
On to AAAAACGG, for which the “PBM E-score” value stood at 0.165.
With GAGTCAGA, the “PBM E-score” value was -0.00915.
The result for ACAATCCG reads 0.116; that for GGTAAAAC, 0.0466; that for CAGGGTCA, -0.234.
For the sequence CACGTATC, the “PBM E-score” value amounted to 0.0819.
For the sequence CTGAGCGA, the “PBM E-score” value is -0.151.
To AGGGCGCA belongs -0.162.
As to GAGGCCTA, the “PBM E-score” value was -0.0891.
As to ATGGAGGA, the “PBM E-score” value was -0.0588.
For GAAGGAGA, the “PBM E-score” value was determined as 0.123.
As to ATAACTGG, the “PBM E-score” value was -0.0217.
On to AAATCCAA, for which the “PBM E-score” value amounted to 0.0898.
CAGAGAGA: the “PBM E-score” value is -0.172.
As for CAAACCTG, the “PBM E-score” value was 0.00604.
For GGAGAACA, the “PBM E-score” value was 0.0539.
As to CTAGCAAG, the “PBM E-score” value is -0.0297.
The result for AAATCGCA reads 0.123; that for AGCTAAGG, -0.191.
Turning to ACCACCAC, the “PBM E-score” value was -0.00648.
AGAAATTC: the “PBM E-score” value is 0.0349.
Regarding AATTATTC, the “PBM E-score” value amounted to 0.256.
Turning to CGGGGTAG, the “PBM E-score” value was -0.0709.
To CAGTGCCG belongs -0.0957.
With GCAGATTA, the “PBM E-score” value is 0.079.
To CACAACGA belongs 0.0195; to CAAGGTGG, -0.118.
As to CGGTTTCA, the “PBM E-score” value is 0.0528.
To CCTTGTGA belongs -0.0241; to CGCTGCCC, -0.264; to CGGACCCC, -0.296.
The result for ACATCAGC reads 0.0153; that for CTTGGGTA, 0.0519; that for ATCGGCGG, 0.0794.
As for GACTAGAA, the “PBM E-score” value came to 0.192.
In the case of GTATCAGA, the “PBM E-score” value is -0.0367.
To GGACTGCA belongs -0.11.
Consider CAGTTGTC, for which the “PBM E-score” value is -0.00619.
Consider TATAGGAA, for which the “PBM E-score” value stood at 0.118.
Take GACTCACC: the “PBM E-score” value was -0.153.
To GCCACTCA belongs 0.0112; to CTTCGAAC, 0.051; to AATCGAAC, 0.107.
Consider AGCCTGCG, for which the “PBM E-score” value was -0.221.
The result for GTCCCCAC reads -0.322.
Turning to GAGTGGTA, the “PBM E-score” value is -0.00418.
ATGTCAAT: the “PBM E-score” value worked out at 0.01.
With ATCCCATC, the “PBM E-score” value came out at 0.0509.
Turning to ATTTGGGA, the “PBM E-score” value is 0.0914.
As for ACGTGCCT, the “PBM E-score” value was -0.191.
On to ATCTTCGG, for which the “PBM E-score” value is 0.114.
GTTACAAC: the “PBM E-score” value worked out at 0.154.
Consider AAACTAAT, for which the “PBM E-score” value was determined as 0.272.
The result for CCCTAGAG reads -0.143; that for GCCTATCC, -0.0822.
Turning to GATTCGGC, the “PBM E-score” value is -0.0169.
On to ATCAAAGA, for which the “PBM E-score” value is -0.0195.
To GTAGCTCA belongs -0.0882.
For the sequence TAACGACA, the “PBM E-score” value was determined as 0.0893.
Regarding ATCGACAA, the “PBM E-score” value was 0.126.
Consider ATTGCAAT, for which the “PBM E-score” value amounted to 0.283.
Regarding AGGATGGA, the “PBM E-score” value is -0.0875.
To AGTACCCC belongs -0.214; to ATATTAGG, 0.209.
For ACGTTCAA, the “PBM E-score” value was -0.00344.
Consider GGATAACA, for which the “PBM E-score” value was 0.116.
Consider AGCATGTC, for which the “PBM E-score” value is -0.0745.
As for CCGGGAGC, the “PBM E-score” value is -0.337.
Consider CGACAAGC, for which the “PBM E-score” value was -0.206.
As for CAACATCC, the “PBM E-score” value was 0.024.
As for CGCTGTGC, the “PBM E-score” value is -0.111.
Regarding ACATCAAT, the “PBM E-score” value amounted to 0.109.
Turning to CAAACCAC, the “PBM E-score” value was -0.042.
To GAAGTTAA belongs -0.0178; to CCAAAGTA, 0.00764.
